Results deposited as PubChem BioAssay AID686938 (Drosophila RNAi Screening Center, 2013).

Screen: 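Looking for CRAC channel components and the factors controlling them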 (primary screen)
Cells: Drosophila S2R+ cells
Reagents: long dsRNA against Drosophila genes, about 0.25 µg dsRNA per well, roughly 10,000 cells
Timing: 5 days of knock-down before the calcium assay
Treatment: thapsigargin (SERCA pump blocker) to empty calcium stores; entry signal taken 4 min after adding it
Measurement: 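Per-well fluo-4 fluorescence in two replicates, unnormalised, measured in resting cells and 4 min after store depletion by the SERCA blocker thapsigargin; ratio of the two present in few wells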
Direction: calcium entry signal: higher = stronger calcium signal after store depletion; entry to resting ratio: higher = more calcium entry relative to resting level; resting calcium signal: higher = higher resting calcium signal
Rule for the call: 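Hit if the duplicate-averaged plate z-score for entry over resting signal is under −3; wells with weak total dye signal (Fmax z < −2) or more than 5 off-targets removed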
Meaning of the calls: active = strongly reduced calcium entry; inactive = no strong reduction
In all, the deposit lists about 23,000 reagents; shown is an unselected part of those with a known target gene and a result. Of all reagents, 75 (0.33%) are marked active. 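Raw plate signals without normalisation; calls rest on plate z-scores that were not deposited; ratio present for only 364 wells.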 Reagent sequences are not shown. Not stated in the record: the dose of the treatment.

target gene,dsRNA,"calcium entry signal, replicate 1 (fluorescence units)","calcium entry signal, replicate 2 (fluorescence units)",entry to resting ratio,"resting calcium signal, replicate 1 (fluorescence units)","resting calcium signal, replicate 2 (fluorescence units)",outcome
CG15646,DRSC19682,2.55e7,3.67e7,,1.49e7,1.71e7,inactive
Sirt7,DRSC14294,2.21e7,2.31e7,,1.01e7,1.09e7,inactive
CG7920,DRSC16346,5.02e7,5.32e7,,2.19e7,2.37e7,inactive
CG7920,DRSC21594,2.83e7,3.09e7,,1.51e7,1.46e7,inactive
Atac3,DRSC08579,4.01e7,4.62e7,,2.07e7,2.05e7,inactive
Dgp-1,DRSC07400,5.37e7,5.05e7,,2.30e7,2.35e7,inactive
Ir51b,DRSC05540,3.64e7,4.71e7,,1.84e7,2.07e7,inactive
DIP-eta,DRSC02342,2.62e7,2.59e7,,1.36e7,1.41e7,inactive
ATPCL,DRSC05913,3.88e7,5.22e7,,1.80e7,2.34e7,inactive
CG16800,DRSC02518,4.49e7,3.37e7,,1.90e7,1.64e7,inactive
UQCR-14,DRSC19870,3.96e7,3.18e7,,2.02e7,1.61e7,inactive
Rh50,DRSC08692,4.59e7,3.87e7,,2.99e7,1.67e7,inactive
SK,DRSC17387,2.36e7,2.39e7,,1.17e7,1.15e7,inactive
SK,DRSC17751,1.82e7,2.58e7,,1.01e7,1.23e7,inactive
SK,DRSC17887,1.92e7,2.99e7,,1.06e7,1.33e7,inactive
SK,DRSC17888,1.77e7,2.97e7,,1.01e7,1.44e7,inactive
SK,DRSC18353,2.60e7,2.77e7,,1.23e7,1.30e7,inactive
SK,DRSC21840,2.27e7,6.64e7,,1.14e7,2.73e7,inactive
CG3592,DRSC18315,3.49e7,6.19e7,2,1.74e7,2.48e7,inactive
Gas41,DRSC03156,3.81e7,,,2.33e7,,inactive
Ir56c,DRSC06544,4.92e7,4.99e7,,1.93e7,2.40e7,inactive
fray,DRSC16950,3.89e7,4.69e7,,5.88e7,2.09e7,inactive
l(2)34Fd,DRSC01911,2.37e7,,,1.41e7,,inactive
TFAM,DRSC15552,4.53e7,3.82e7,,1.86e7,1.67e7,inactive
CG31007,DRSC14029,3.68e7,4.55e7,,1.81e7,1.88e7,inactive
CG10383,DRSC02050,4.17e7,,,2.03e7,,inactive
msl-2,DRSC00829,3.45e7,,,2.19e7,,inactive
CG14752,DRSC06488,4.38e7,3.89e7,,1.97e7,1.68e7,inactive
CG5079,DRSC15713,2.75e7,2.84e7,,1.62e7,1.54e7,inactive
CG5079,DRSC23061,3.22e7,3.88e7,,1.52e7,1.82e7,inactive
OtopLb,DRSC00594,4.58e7,,,2.85e7,,inactive
mIF3,DRSC06290,2.93e7,3.97e7,,1.59e7,1.67e7,inactive
Ssdp,DRSC16211,4.22e7,4.55e7,,5.27e7,1.88e7,inactive
CG10914,DRSC06010,4.48e7,5.41e7,,1.93e7,2.54e7,inactive
CG15147,DRSC02447,5.31e7,7.96e7,,2.32e7,2.93e7,inactive
CG15147,DRSC02448,5.02e7,3.07e7,,2.04e7,1.49e7,inactive
pdm3,DRSC06076,3.56e7,3.57e7,,1.60e7,1.48e7,inactive
pdm3,DRSC06490,4.43e7,4.23e7,,2.08e7,1.80e7,inactive
pdm3,DRSC22326,3.57e7,5.38e7,,1.73e7,3.01e7,inactive
pdm3,DRSC23181,4.26e7,4.22e7,,1.82e7,1.58e7,inactive
kumpel,DRSC14883,4.79e7,4.67e7,,2.50e7,2.00e7,inactive
kumpel,DRSC16459,3.76e7,5.63e7,,1.86e7,2.25e7,inactive
kumpel,DRSC16460,5.57e7,4.45e7,,2.40e7,1.73e7,inactive
kumpel,DRSC16461,3.75e7,6.74e7,,1.94e7,2.62e7,inactive
kumpel,DRSC16462,4.01e7,7.11e7,,2.08e7,2.92e7,inactive
kumpel,DRSC16463,5.46e7,7.55e7,,2.58e7,3.17e7,inactive
CG32846,DRSC08012,3.52e7,3.69e7,,2.28e7,1.76e7,inactive
Tcs4,DRSC19587,3.14e7,2.46e7,,1.43e7,1.13e7,inactive
Abi,DRSC14099,2.71e7,2.68e7,,1.18e7,1.31e7,inactive
Bcs1,DRSC02789,3.76e7,3.96e7,,1.69e7,1.69e7,inactive
CG9205,DRSC08642,2.47e7,2.03e7,,1.11e7,1.09e7,inactive
CG3163,DRSC04341,4.09e7,,,2.11e7,,inactive
wrapper,DRSC04723,3.51e7,,,1.64e7,,inactive
Uba2,DRSC11311,2.98e7,2.80e7,,1.58e7,1.47e7,inactive
CG12446,DRSC20618,4.57e7,5.25e7,,2.32e7,2.12e7,inactive
CG43133,DRSC19231,3.46e7,4.01e7,,1.66e7,1.97e7,inactive
CBP,DRSC17746,3.41e7,4.02e7,,1.65e7,1.72e7,inactive
Mur29B,DRSC01018,4.77e7,4.69e7,,2.40e7,2.13e7,inactive
Mur29B,DRSC02376,3.03e7,5.56e7,,1.52e7,2.32e7,inactive

Look-ups from the entries so far:
Result for CBP [DRSC17746] under “resting calcium signal, replicate 2 (fluorescence units)”: 1.72e7
For “calcium entry signal, replicate 1 (fluorescence units)”, CG12446 [DRSC20618] has 4.57e7
CG5079 [DRSC23061], resting calcium signal, replicate 2 (fluorescence units) → 1.82e7
Under “resting calcium signal, replicate 1 (fluorescence units)”, CG16800 [DRSC02518] reads 1.90e7
Result of kumpel [DRSC16463] in “outcome”: inactive
l(2)34Fd [DRSC01911], calcium entry signal, replicate 1 (fluorescence units) = 2.37e7
